Source: patent publication EP1997826A2 (Tecnogen S.p.A., priority 2007, dated 2008)

Assay: general procedure: Fmoc solid-phase peptide synthesis; polystyrene (1% divinylbenzene, 100-200 mesh) derivatized with hydroxymethylphenoxyl group, 0.84 meq/g (Novabiochem); HOBt/HBTU
Settings: trifluoroacetate salt

Substance: (H-L-Cys(p-MeOBzl)-D-Arg-D-Thr-D-Tyr)4-L-Lys2-L-Lys-L-Lys-OH
- step yield (purification step, purification yield): 24.8%
- crude HPLC purity (whole synthesis, 225 nm, scale of the general procedure 1.44 mmol): 75%
- final HPLC purity (whole synthesis, analytical RP-HPLC, C18 Jupiter, 225 nm, scale of the general procedure 1.44 mmol): 99%
- crude yield (whole synthesis, calculated from the initial 1.44 mmol, scale 1.44 mmol): 73.4%
- crude mass (whole synthesis, scale 1.44 mmol): 4.26 g
